According to PubChem BioAssay AID493014 (National Center for Advancing Translational Sciences (NCATS), 2011):
Among all 340,000 compounds or so, about 170 (0.05%) were called active. Inconclusive results, whose numbers are uncertain, are shown with a selection of clear calls. Calls follow the shape of the dose curve; as a rule, active = well fitted inhibition curve with a large enough effect in the signal ratio, with a control signal flat (not every such curve was filed as active); inconclusive = small, poorly fitted or top-dose-only effect, or effect the other way, or a change in a side signal; inactive = flat fitted curve, though single readings scatter; the % refers to the signal ratio. Where the call is inconclusive, the potency comes from a doubtful curve fit.

Test: qHTS Assay to Find Inhibitors of Chronic Active B-Cell Receptor Signaling;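 as to activity change, negative = inhibition: plate controls were basal doxycycline-induced cells for no effect and cells given 10 µM MG132 for full effect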
Details: ABC-DLBCL IkBa-CBG/CBR reporter, luminescence ratio (green luciferase fused to IkBa over red control in TMD8 lymphoma cells), 4 h; activity change, negative = inhibition: at 46.1 µM (top of the series)
In short: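 Doxycycline induced both beetle luciferases in TMD8 lymphoma cells; IKK-driven degradation limits the IkappaBalpha-fused green signal, while red luminescence normalises for cell number and nonspecific effects. Compounds tested up to 46 uM, 4 hrs.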
Potency is read from the fitted curve at half-maximal effect.

| SMILES | Potency | activity change, negative = inhibition |
| --- | --- | --- |
| CCOc1ncccc1C(=O)NNC(=O)c1ccc(NS(=O)(=O)c2cccs2)cc1 | inconclusive: 20.6 µM [falling, single point] | – |
| C=CCNc1oc(-c2ccc(-c3ccccc3)cc2)nc1C#N | inconclusive: 3.26 µM [falling, partial curve, poor fit] | – |
| Cc1ccc(SC(C)C(=O)Nc2ccccc2C(=O)N2CCOCC2)cc1 (stereo not given) | – | inconclusive: 11.4% |
| CC(=O)Cn1cnc2c(sc3nc(C)cc(C)c32)c1=O | – | inactive: 1.37% |
| O=C(CCCN1C(=O)/C(=C/c2cccs2)SC1=S)NNC(=O)c1cccnc1 | inconclusive: 15.8 µM [falling, partial curve] | – |
| C=CCNC(=O)c1ccccc1NC(=O)Nc1ccccc1 | – | inconclusive: -15.5% |
| Brc1ccc(CN2C3=NCCCN3c3ccccc32)cc1 | – | inconclusive: -12.5% |
| COc1ccc2c(c1)C(C)=CC(C)(C)N2S(=O)(=O)c1ccc(C)cc1 | inconclusive: 3.55 µM [falling, full curve] | – |
| CCNc1ccc(N=Nc2c(C)n(C)n(-c3ccccc3)c2=O)cc1 | inconclusive: 20 µM [falling, partial curve, poor fit] | – |
| CCn1c2ccccc2c2n[nH]c(=S)nc21 | – | inactive: -2.41% |
| COc1cccc(CN(C)CC(=O)NC(=O)NCc2ccco2)c1 | – | inconclusive: 16.6% |
| COc1ccc([C@]23Cc4c(ccc5ccccc45)C(O2)C2=C(CCCC2=O)O3)cc1 | inconclusive: 3.98 µM [rising, single point] | – |
| COc1ccc(-c2csc(NC(=O)C3CSC4(C)CCC(=O)N34)n2)c(OC)c1 (stereo not given) | – | inactive: 12.2% |
| COc1ccc(OC)c(-c2cc(C(=O)N3CCCc4ccccc43)no2)c1 | – | inconclusive: -9.71% |
| Cc1nc(N)sc1-c1csc(Nc2ccc(S(N)(=O)=O)cc2)n1 | inconclusive: 12.6 µM [falling, single point] | – |
| COC(=O)c1nc(NC(=S)NC(=O)c2cccs2)sc1C | – | inconclusive: -25.6% |
| CCc1cccc(CC)c1N(COC)C(=O)Cn1c(C(C)O)nc2ccccc21 (stereo not given) | – | inconclusive: 1.46% |
| O=C(NOCc1ccccc1)c1ccc(Cl)cc1 | inconclusive: 18.4 µM [falling, partial curve] | – |
| O=C(CCC(=O)Nc1ccc(F)cc1)N/N=C/c1ccc(Br)cc1 | – | inactive: -6.07% |
| C=COCCNC(=O)Nc1ccc(Cl)c(Cl)c1 | inconclusive: 23.1 µM [falling, partial curve] | – |
| NC(=O)c1ccc(NC(=O)COc2cccc3c2CCNC3=O)cc1 | – | inconclusive: 9.76% |
| CCC(C)(C)NC(=O)CCCSc1nc2ccccc2s1 | – | inactive: 11.8% |
| CCCCn1c(SCC(=O)Nc2nnc(C(C)C)s2)nc2c1c(=O)n(C)c(=O)n2C | – | inactive: 13.8% |
| COc1cc(CCC(=O)Nc2ccc(Cl)c(C(F)(F)F)c2)cc(OC)c1OC | – | inactive: -9.77% |
| N#Cc1ccc(N2Cc3ccccc3C2=NC(=O)c2cccs2)cc1 | – | inconclusive: 0.46% |

Single records, as listed above:
O=C(CCC(=O)Nc1ccc(F)cc1)N/N=C/c1ccc(Br)cc1 is entered as activity change, negative = inhibition: inactive: -6.07%
COc1ccc(-c2csc(NC(=O)C3CSC4(C)CCC(=O)N34)n2)c(OC)c1 (stereo not given) is entered as activity change, negative = inhibition: inactive: 12.2%
CC(=O)Cn1cnc2c(sc3nc(C)cc(C)c32)c1=O is entered as activity change, negative = inhibition: inactive: 1.37%

The list continues:

| SMILES | Potency | activity change, negative = inhibition |
| --- | --- | --- |
| O=C(Nc1ccc(Cl)cc1)Nc1cc(S(=O)(=O)N2CCOCC2)ccc1N1CCCC1 | – | inconclusive: 10.7% |
| COc1cc(-c2nc(-c3cccc(C)c3)no2)cc(OC)c1OC | inconclusive: 0.231 µM [rising, full curve, poor fit] | – |
| CCOc1ccc(-n2c(-c3ccc(Cl)cc3)c[n+]3c2SCC3)cc1 | – | inactive: 1.21% |
| CCOc1ccc(C(=O)/C=C/c2cc(OC)c(OC)c(OC)c2)cc1 | inconclusive: 12.6 µM [falling, partial curve] | – |
| CCOc1ccc2ccccc2c1/C=N\NC(=O)c1ccc([N+](=O)[O-])cc1 | – | inconclusive: -8.42% |
| CCOC(=O)C1=C(c2ccccc2)NC(N)=NC1c1ccc(OCc2ccc(C(=O)OC)cc2)cc1 (stereo not given) | – | inconclusive: -8.65% |
| COc1ccc(-n2cc(CNC3CCN(C)CC3)c(-c3cccc(F)c3)n2)cc1 | inconclusive: 3.16 µM [falling, partial curve, poor fit] | – |
| CCOc1ccc(S(=O)(=O)Nc2cc(C)ccn2)c2ccccc12 | inconclusive: 20.6 µM [rising, single point] | – |
| COc1ccc(-c2cnnn2-c2ccc(NC(=O)c3ccco3)cc2)cc1OC | inconclusive: 35.5 µM [falling, single point] | – |
| CC1CCCN(S(=O)(=O)c2ccc3c(c2)n(C)c(=O)c(=O)n3C)C1 (stereo not given) | – | inactive: -4.46% |
| O=C(Nc1ccccc1F)c1ccc2snnc2c1 | inconclusive: 15.8 µM [falling, partial curve] | – |
| O=C(Nc1nc(-c2cccs2)cs1)c1cccc(S(=O)(=O)N2CCCCC2)c1 | – | inconclusive: 14.4% |
| COc1ccc(C)c2sc(N(CCCN(C)C)C(=O)c3ccc4c(c3)OCCO4)nc12 | – | inconclusive: 1.25% |
| COc1cccc(/C=C2/Sc3ccc(C(=O)NCCCN4CCCC4)cc3NC2=O)c1 | inconclusive: 2.51 µM [falling, full curve, poor fit] | – |
| O=C(Nc1ccccc1)/C(=C/c1ccccc1)c1ccccc1 | – | inconclusive: 7.56% |
| Cc1[nH]nc2c1-c1nc3ccccc3nc1C(C)(C)C2 | inconclusive: 10 µM [falling, partial curve] | – |
| O=C(/C=C/c1cccc(Cl)c1)c1ccc([N+](=O)[O-])o1 | inconclusive: 29.1 µM [rising, single point] | – |
| Cn1c(NCCc2ccccc2)cc(=O)n(C)c1=O | – | inconclusive: 4.31% |
| Cc1cc(NC(=O)c2ccc3c(c2)C(=O)N(c2cccc(C)c2C)C3=O)no1 | – | inactive: -3.37% |
| COc1ccc(Cc2nnc(NC(=O)Nc3ccccc3OC)s2)cc1 | – | inconclusive: -2.24% |
| O=[N+]([O-])c1ccc(-n2cc(-c3ccccc3)nn2)cc1 | – | inconclusive: 4.47% |
| Nc1c(NCCN2CCCCC2)c2ccccc2oc1=O | inconclusive: 10 µM [falling, partial curve] | – |
| O=C(/C=C/c1ccccc1)NC(=S)NNC(=O)c1cnccn1 | – | inconclusive: -3.81% |
| CCCCN(C)CCn1c(=S)[nH]c2ncccc2c1=O | – | inconclusive: 2.4% |
| COC(=O)/C=C/C(=O)Nc1ccc(O)c(Cl)c1 | – | inconclusive: -4.18% |

| SMILES | Potency | activity change, negative = inhibition |
| --- | --- | --- |
| CC(=O)Nc1ccccc1C(=O)C(=O)Nc1cccc(C(=O)N2CC(C)CC(C)C2)c1 (stereo not given) | inconclusive: 22.4 µM [falling, single point] | – |
| CC(=O)c1ccc(N(C(=O)Cc2c[nH]c3ccccc23)C(C(=O)NC2CCCCC2)c2cccs2)cc1 (stereo not given) | inconclusive: 1.41 µM [falling, full curve] | – |
| S=c1[nH]nc(-c2ccco2)n1/N=C/c1ccc(Cl)cc1Cl | – | inactive: 4.57% |
| CCOC(=O)c1c(S(=O)(=O)NCC(=O)Nc2ccc(Cl)c(C(F)(F)F)c2)c(C)n(C)c1C | inconclusive: 35.5 µM [falling, single point] | – |
| COc1cc(OC)cc(C(=O)Nc2ccccc2NC(C)=O)c1 | – | inconclusive: -3.82% |
| COc1ccc(CCNC(=O)/C=C/c2ccc3ccccc3n2)cc1OC | inconclusive: 11.2 µM [falling, partial curve] | – |
| CCCCNC(=O)CSc1nc(Cc2ccccc2)nc2ccccc12 | – | inconclusive: -10.6% |
| O=C(O)c1cc(O)c2c(c1)[C@@H]([C@H]1c3cc(C(=O)O)cc(O)c3C(=O)c3c(O[C@@H]4O[C@H](CO)[C@@H](O)[C@H](O)[C@H]4O)cccc31)c1cccc(O[C@@H]3O[C@H](CO)[C@@H](O)[C@H](O)[C@H]3O)c1C2=O | – | inconclusive: -1.57% |
| CCOC(=O)Nc1ccc(C)cc1C | inconclusive: 5.8 µM [falling, partial curve, poor fit] | – |
| COc1cccc(CNC(=O)CN2C(=O)c3ccccc3S2(=O)=O)c1 | – | inconclusive: -20% |
| CC(Oc1ccc(F)cc1)C(=O)Nc1ccc2ccccc2c1 (stereo not given) | inconclusive: 29.1 µM [rising, single point] | – |
| NC(=O)c1c(NC(=O)Cc2cccs2)sc2c1CCC2 | – | inconclusive: 14.5% |
| CN(CC(=O)Nc1ccc(N2CCOCC2)cc1)Cc1cc(=O)n2ccsc2n1 | – | inconclusive: -2.39% |
| CCC(=O)Oc1ccc(-c2cnc3ccccc3n2)cc1 | inconclusive: 1.26 µM [rising, full curve] | – |
| CCN1CCN(C(=O)c2ccc3c(c2)N(Cc2ccccc2)C(=O)c2ccccc2S3=O)CC1 (stereo not given) | – | inconclusive: -8.5% |
| COc1ccc2ccccc2c1/C=N/Nc1ccc(Cl)c(C(=O)O)c1 | inconclusive: 11.2 µM [falling, partial curve, poor fit] | – |
| Cc1ccc2nc(NC(=O)CSc3nc(=O)n(CCCN(C)C)c4c3CCC4)sc2c1 | – | inactive: -4.3% |
| O=C(O)CCC(=O)Nc1ccc(/C=C/C(=O)C2CC2)cc1 | – | inconclusive: 9.99% |
| S=C(NCCc1ccccc1)NC1CC2CCC(C1)N2Cc1ccccc1 (stereo not given) | – | inactive: 13.5% |
| N/C(=N\OC(=O)Cc1cccs1)c1ccc(Br)cc1 | inconclusive: 0.259 µM [rising, full curve, poor fit] | – |
| COc1ccc(/C=C/C(=O)c2cc(Br)ccc(=O)c2O)cc1 | inconclusive: 18.4 µM [falling, single point] | – |
| COc1ccc(OC)c(NC(=O)C2CCC(CNc3c(N4CCOCC4)c(=O)c3=O)CC2)c1 (stereo not given) | – | inconclusive: -12.9% |
| CC1Cc2ccccc2N1C(=O)CSc1nc2ccccc2o1 (stereo not given) | – | inconclusive: -2.03% |
| COc1ccc(CN2CCC(CO)(CCOc3ccccc3)CC2)c(OC)c1C | inconclusive: 35.5 µM [falling, single point] | – |
| C=CCNC(NC(=O)c1ccccc1)(C(=O)OCC)C(F)(F)F (stereo not given) | inconclusive: 11.2 µM [falling, partial curve, poor fit] | – |

By substructure: the compounds so far containing a cyano group (2)

| SMILES | Potency | activity change, negative = inhibition |
| --- | --- | --- |
| C=CCNc1oc(-c2ccc(-c3ccccc3)cc2)nc1C#N | inconclusive: 3.26 µM [falling, partial curve, poor fit] | – |
| N#Cc1ccc(N2Cc3ccccc3C2=NC(=O)c2cccs2)cc1 | – | inconclusive: 0.46% |
